Measured values published in article PMC7469701.
No constants are given. Whether binding was seen depends on the method and setting. Binding seen in cells or lysates may run through a third protein. Some binding calls cover weakened binding; strength is not graded here. Where a sequence is shown, tags or fusion partners need not be part of it.

T1: Csm2 subunit of the Streptococcus thermophilus type III-A Csm complex (StCsm), tagged (Streptococcus thermophilus)
T1 sequence: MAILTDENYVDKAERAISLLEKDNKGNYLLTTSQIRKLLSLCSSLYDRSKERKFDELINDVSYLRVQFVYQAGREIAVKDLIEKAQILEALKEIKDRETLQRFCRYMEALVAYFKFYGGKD

B1: Cas10 subunit of the Streptococcus thermophilus Csm complex (StCsm), wild type (protein, UniProt A0A0A7HFE1 1-758)
chain: MKKEKIDLFYGALLHDIGKVIQRATGERKKHALVGADWFDEIADNQVISDQIRYHMANYQSDKLGNDHLAYITYIADNIASGVDRRQSNEESDEDASAKIWDTYTNQADIFNVFGAQTDKRYFKPTVLNLKSKPNFASATYEPFSKGDYAAIATRIKNELAEFEFNQAQIDSLLNLFEAILSFVPSSTNSKEIADISLAEHSRLTAAFALAIYDYLEDKGRHNYKEDLFTKASAFYEEEAFLLASFDLSGIQDFIYNIATSGAAKQLKARSLYLDFMSEYIADSLLDKLGLNRANLLYVGGGHAYFVLANTEKTVETLVQFEKDFNQFLLANFQTRLYVAFGWGSFAAKDIMSELNSPESYRQIYQKASRMISEKKISRYDYRTLMLLNRGGKSSERECEICHSVENLVSYHDQKVCDICRGLYQFSKEIAHDHFIITENEGLPIGPNACLKGVAFEKLSQESFSRVYVKNDYKAGTIKATHVFVGDYQCDEIHKYAALSKNEDGLGIKRLAVVRLDVDDLGAAFMAGFSRQGNGQYSTLSRSATFSRSMSLFFKVYINQFASDKKLSIIYAGGDDVFAIGSWQDIIAFTVELRQNFIKWTNGKLTLSAGIGLFADKTPISLMAHQTGELEEAAKGNEKDSISLFSSDYTFKFDRFITNVYDDKLEQIRYFFNHQDERGKNFIYKLIELLRNYESEEKMNVARLAYYLTRLEELTDKDERDKFKQFKKLFFKWYTNNESDRKEAELALLLYVYEIRKD
B2: Csm3 subunit of the Streptococcus thermophilus Csm complex (StCsm), wild type (protein, UniProt A0A0A7HIF0 1-220)
chain: MTFAKIKFSAQIRLETGLHIGGSDAFAAIGAIDSPVIKDPITNIPIIPGSSLKGKMRTLLAKVYNEKVAEKPSDDSDILSRLFGNSKDKRFKMGRLIFRDAFLSNADELDSLGVRSYTEVKFENTIDRITAEANPRQIERAIRNSTFDFELIYEITDENENQVEEDFKVIRDGLKLLELDYLGGSGSRGYGKVAFEKLKATTVFGNYDVKTLNELLTAEV
B3: Cas10 D16A variant (DNase-deficient) of the Streptococcus thermophilus Csm complex (protein, UniProt A0A0A7HFE1 1-758)
chain: MKKEKIDLFYGALLHAIGKVIQRATGERKKHALVGADWFDEIADNQVISDQIRYHMANYQSDKLGNDHLAYITYIADNIASGVDRRQSNEESDEDASAKIWDTYTNQADIFNVFGAQTDKRYFKPTVLNLKSKPNFASATYEPFSKGDYAAIATRIKNELAEFEFNQAQIDSLLNLFEAILSFVPSSTNSKEIADISLAEHSRLTAAFALAIYDYLEDKGRHNYKEDLFTKASAFYEEEAFLLASFDLSGIQDFIYNIATSGAAKQLKARSLYLDFMSEYIADSLLDKLGLNRANLLYVGGGHAYFVLANTEKTVETLVQFEKDFNQFLLANFQTRLYVAFGWGSFAAKDIMSELNSPESYRQIYQKASRMISEKKISRYDYRTLMLLNRGGKSSERECEICHSVENLVSYHDQKVCDICRGLYQFSKEIAHDHFIITENEGLPIGPNACLKGVAFEKLSQESFSRVYVKNDYKAGTIKATHVFVGDYQCDEIHKYAALSKNEDGLGIKRLAVVRLDVDDLGAAFMAGFSRQGNGQYSTLSRSATFSRSMSLFFKVYINQFASDKKLSIIYAGGDDVFAIGSWQDIIAFTVELRQNFIKWTNGKLTLSAGIGLFADKTPISLMAHQTGELEEAAKGNEKDSISLFSSDYTFKFDRFITNVYDDKLEQIRYFFNHQDERGKNFIYKLIELLRNYESEEKMNVARLAYYLTRLEELTDKDERDKFKQFKKLFFKWYTNNESDRKEAELALLLYVYEIRKD
B4: Csm3 D33A variant (RNase-deficient) of the Streptococcus thermophilus Csm complex (protein, UniProt A0A0A7HIF0 1-220)
chain: MTFAKIKFSAQIRLETGLHIGGSDAFAAIGAIASPVIKDPITNIPIIPGSSLKGKMRTLLAKVYNEKVAEKPSDDSDILSRLFGNSKDKRFKMGRLIFRDAFLSNADELDSLGVRSYTEVKFENTIDRITAEANPRQIERAIRNSTFDFELIYEITDENENQVEEDFKVIRDGLKLLELDYLGGSGSRGYGKVAFEKLKATTVFGNYDVKTLNELLTAEV

The binders below were run against T1, Csm2 subunit of the Streptococcus thermophilus type III-A Csm complex (StCsm), tagged (Streptococcus thermophilus) (assay: pull-down + SEC; Cas/Csm proteins co-expressed with a synthetic CRISPR array in E. coli; intact ribonucleoprotein pulled down from the extract by the tagged Csm2 subunit as bait (Strep-chelating affinity, then size exclusion chromatography); subunit composition by Coomassie-stained gel).

**Q.** Which binding does the source give for B1 here?
**A.** The binding was “binds”.

**Q.** Which binding does the source give for B2 here?
**A.** Its binding is “binds”.

**Q.** Which binding does the source give for B3 here?
**A.** The binding was “binds”.

**Q.** Which binding does the source give for B4 here?
**A.** Its binding is “binds”.
